According to patent publication US9637492B2, “Benzothiazole kinase inhibitors and methods of use” (Intellikine LLC, priority 2008, dated 2017):
At least one compound was matched to its structure with a doubt left.

Test system: PI3K/Akt/mTor signaling
Experiment: Kinase signaling in blood (phosflow)
Assay type: cell-based
Details: anti-CD3 stimulated splenocytes or peripheral blood mononuclear cells

Q: Which results are given for `CO[C@H]1C[C@@H]2CC[C@@H](C)[C@@](O)(O2)C(=O)C(=O)N2CCCC[C@H]2C(=O)O[C@H]([C@H](C)C[C@@H]2CC[C@@H](O)[C@H](OC)C2)CC(=O)[C@H](C)/C=C(\C)[C@@H](O)[C@@H](OC)C(=O)[C@H](C)C[C@H](C)/C=C/C=C/C=C/1C` [rapamycin]?
A: Akt phosphorylation: enhances; S6 phosphorylation: inhibits
